Assay [1] addresses T1, Aromatase (Homo sapiens, UniProt P11511).
T1 sequence (P11511 whole entry): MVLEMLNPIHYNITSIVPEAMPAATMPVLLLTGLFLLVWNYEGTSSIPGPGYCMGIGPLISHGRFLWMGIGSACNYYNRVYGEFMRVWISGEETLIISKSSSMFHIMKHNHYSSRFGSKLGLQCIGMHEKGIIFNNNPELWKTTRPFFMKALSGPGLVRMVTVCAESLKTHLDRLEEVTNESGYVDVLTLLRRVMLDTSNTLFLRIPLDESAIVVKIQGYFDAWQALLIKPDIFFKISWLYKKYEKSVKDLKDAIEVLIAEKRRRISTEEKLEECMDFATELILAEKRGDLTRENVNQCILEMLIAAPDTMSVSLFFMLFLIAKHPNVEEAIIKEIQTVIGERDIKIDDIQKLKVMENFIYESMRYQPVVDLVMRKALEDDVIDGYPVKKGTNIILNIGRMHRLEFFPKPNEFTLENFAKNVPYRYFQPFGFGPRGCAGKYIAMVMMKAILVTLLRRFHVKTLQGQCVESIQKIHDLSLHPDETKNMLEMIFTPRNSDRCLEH

The target in assay [2] is T1, Aromatase. Kind of assay: Competitive inhibition of human aromatase extracted from placental microsomes by Dixon plot analysis in presence of [1beta-3H]AD.

pKi: −log10 of the molar value.

The record followed here is ChEMBL document CHEMBL3751755, “Developing steroidal aromatase inhibitors-an effective armament to win the battle against breast cancer” (Eur J Med Chem, 2015).

What is called pKi is the negative decadic logarithm of the Ki, by convention in mol/L. With `C[C@]12CC[C@H]3[C@@H](C[C@H]4OC[C@@]35CCC(=O)C=C45)[C@@H]1CCC2=O`, in assay [1], the pKi is 5.66.

For the compound `C[C@]12C[C@@H](F)C(=O)C=C1CC[C@@H]1[C@@H]2CC[C@]2(C)C(=O)CC[C@@H]12`, the pKi in assay [2] is 7.35.
